PubChem BioAssay AID720505 – Drosophila RNAi Screening Center – 2013
The deposit covers about 20,000 reagents; shown is a random part of those that have a named target and a result. Over the whole deposit, about 2,100 (10%) are marked active. 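Raw plate signals without normalisation; calls rest on control-based scores that were not deposited; replicate 2 separates called from uncalled poorly.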 Unmarked entries are inactive. Not given: the amount of reagent, the time to read-out.

Assay: 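Fly regulators or components of the CRAC channel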 (primary screen)
System: Drosophila S2R+ cells
Reagent: long dsRNA against Drosophila genes
Challenge: thapsigargin (2 µM) in calcium-free buffer to empty internal stores, then 2 mM calcium added back
Measurement: 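Fluo-4 signal in 384-well plates read on a FLIPR after thapsigargin (2 µM, calcium-free) store depletion and 2 mM calcium add-back; unnormalised mean endpoint per well; screen run twice, selected wells retested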
Reading the numbers: calcium signal and retest calcium signal: higher = more calcium entry after store depletion
Call rule: 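About 1500 genes called as lowering calcium entry, by varying amounts, judged against per-plate control wells with STIM1 as positive and Rho1 as negative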
Calls: active = called as lowering calcium entry; inactive = not called

CG9168 [DRSC08633] gave calcium signal, replicate 1 = 126; calcium signal, replicate 2 = 143.
Against Stt3A [DRSC20514], the values are calcium signal, replicate 1 = 226; calcium signal, replicate 2 = 186.
IntS8 (Integrator 8) [DRSC07417] gave calcium signal, replicate 1 = 126; calcium signal, replicate 2 = 100.
Knock-down of rt (rotated abdomen) [DRSC11391] gave: calcium signal, replicate 1 = 108; calcium signal, replicate 2 = 77.9.
Against comm3 [DRSC09993] the deposit lists calcium signal, replicate 1 = 82.1; calcium signal, replicate 2 = 154.
For comm3 [DRSC09994], the values are calcium signal, replicate 1 = 92.3; calcium signal, replicate 2 = 179.
comm3 [DRSC09995] showed calcium signal, replicate 1 = 128; calcium signal, replicate 2 = 127.
Against Hs3st-A (Heparan sulfate 3-O sulfotransferase-A) [DRSC06507], the entry reads calcium signal, replicate 1 = 142; calcium signal, replicate 2 = 84.9.
Depletion of Hs3st-A (Heparan sulfate 3-O sulfotransferase-A) [DRSC06508] resulted in: calcium signal, replicate 1 = 155; calcium signal, replicate 2 = 144.
With knock-down of Hs3st-A (Heparan sulfate 3-O sulfotransferase-A) [DRSC06509], the screen gave calcium signal, replicate 1 = 166; calcium signal, replicate 2 = 147.
With knock-down of CG33233 [DRSC08239], the record shows calcium signal, replicate 1 = 86.8; calcium signal, replicate 2 = 113.
Silencing of peng (penguin) [DRSC20583] resulted in: calcium signal, replicate 1 = 96.5; calcium signal, replicate 2 = 104.
Against CG14207 [DRSC19562] the deposit lists calcium signal, replicate 1 = 94; calcium signal, replicate 2 = 112.
Against CG14207 [DRSC19563] the deposit lists calcium signal, replicate 1 = 191; calcium signal, replicate 2 = 91.9.
For Rrp1 (Recombination repair protein 1) [DRSC00784] the deposit lists calcium signal, replicate 1 = 61.5 (active); calcium signal, replicate 2 = 62.8; retest calcium signal, replicate 1 = 78.6; retest calcium signal, replicate 2 = 82.2.
After knock-down of CG2145 [DRSC19835], the screen gave calcium signal, replicate 1 = 101; calcium signal, replicate 2 = 66.2.

Copied from above for reference:
CG14207 [DRSC19563]: calcium signal, replicate 1 = 191; calcium signal, replicate 2 = 91.9
Rrp1 (Recombination repair protein 1) [DRSC00784]: calcium signal, replicate 1 = 61.5 (active); calcium signal, replicate 2 = 62.8; retest calcium signal, replicate 1 = 78.6; retest calcium signal, replicate 2 = 82.2
CG2145 [DRSC19835]: calcium signal, replicate 1 = 101; calcium signal, replicate 2 = 66.2

The listing continues:
Against TotM (Turandot M) [DRSC02355], the values are calcium signal, replicate 1 = 160; calcium signal, replicate 2 = 95.9.
CG7135 [DRSC20026] gave calcium signal, replicate 1 = 90.6; calcium signal, replicate 2 = 153.
With knock-down of Nmnat (Nicotinamide mononucleotide adenylyltransferase) [DRSC14644] the results were calcium signal, replicate 1 = 113; calcium signal, replicate 2 = 111.
Depletion of Cyp4p1 (Cytochrome P450 4p1) [DRSC07372] resulted in: calcium signal, replicate 1 = 164; calcium signal, replicate 2 = 198.
Against Hyccin [DRSC06983], the entry reads calcium signal, replicate 1 = 115; calcium signal, replicate 2 = 92.6.
CG5984 [DRSC15930] scored calcium signal, replicate 1 = 162; calcium signal, replicate 2 = 168.
After knock-down of CG11149 [DRSC02130] the results were calcium signal, replicate 1 = 149; calcium signal, replicate 2 = 141.
Knock-down of CASK [DRSC14588] came out at: calcium signal, replicate 1 = 197; calcium signal, replicate 2 = 198; retest calcium signal, replicate 1 = 8515; retest calcium signal, replicate 2 = 155.
CASK [DRSC16597] gave calcium signal, replicate 1 = 148; calcium signal, replicate 2 = 134.
For CASK [DRSC16598] the deposit lists calcium signal, replicate 1 = 252; calcium signal, replicate 2 = 202.
After knock-down of CASK [DRSC21917], the record shows calcium signal, replicate 1 = 79.1; calcium signal, replicate 2 = 182.
Against daw (dawdle) [DRSC00479] the deposit lists calcium signal, replicate 1 = 99; calcium signal, replicate 2 = 183.
Against CG14502 [DRSC06473], the values are calcium signal, replicate 1 = 146; calcium signal, replicate 2 = 119.
CG31988 [DRSC22491] scored calcium signal, replicate 1 = 84.2; calcium signal, replicate 2 = 182.
Depletion of prage [DRSC17957] came out at: calcium signal, replicate 1 = 88.3; calcium signal, replicate 2 = 174.
With knock-down of prage [DRSC17958], the screen gave calcium signal, replicate 1 = 62.3 (active); calcium signal, replicate 2 = 84.5.
Against prage [DRSC18490] the deposit lists calcium signal, replicate 1 = 106; calcium signal, replicate 2 = 122.
prage [DRSC18497] gave calcium signal, replicate 1 = 132; calcium signal, replicate 2 = 158.
Against CG14770 [DRSC17947], the entry reads calcium signal, replicate 1 = 60.8 (active); calcium signal, replicate 2 = 84.5.
